Data as given in PMC9585581, “Developing Photoaffinity Probes for Dopamine Receptor D2 to Determine Targets of Parkinson’s Disease Drugs” (ACS Chemical Neuroscience, 2022).

Tested on: rat whole brain proteins
Assay: Rat whole brain photo-cross-linking, biotin-streptavidin pulldown and LC/MS proteomics (interactome)
Format: binding, Sprague Dawley rat
Conditions: probe 50 μM; proteins also identified with control 16 removed as background
Text: Whole brain assays were designed to assay the binding partners of 5 and 7, as well as a control for the inherent binding of the benzophenone cross-linker using molecule 16 (Figure 7). […] We chose this methodology to maximize the amount of unique hits we were likely to record. A drawback to this assay, however, is that GPCRs need highly specific extraction/purification conditions to be detected by LC-MS (or other protein detection methodologies) at the end point. Thus, by biasing our assay toward a “wide lens” to record a picture of diverse interactions, we missed the specific focus necessary to observe DRD2 and structurally related GPCRs, and we were unable to directly observe DRD2 in the proteomic analysis.
To perform the assay, the whole brain minus the olfactory bulb from an adult female Sprague Dawley rat was homogenized and treated with probes or linker control 16 at a 50 μM concentration and photo-cross-linked. A streptavidin resin was used to deplete endogenous biotin and then clicked with azido biotin, followed by streptavidin pulldown. The streptavidin beads were processed by tryptic digest, followed by LC/MS proteomic analysis. Proteins identified in both control 16 and the 5 and 7 treated samples were removed as background (for full results, see the Supporting Information, Excel File 2). […] All targets (peptides and proteins) were identified with a maximum false discovery rate of 5% or a q-value of >0.05. Most peptides and proteins were identified with a false discovery rate of 1%, q-value of >0.01 (Supporting Information, Excel File 2).
To prepare the homogenate, adult rat brain tissue was microdissected and the olfactory bulb was discarded and sliced into 1 mm pieces. The pieces were suspended in a phosphate-based NP-40 lysis buffer (150 mM NaCl, 50 mM phosphate, 1% NP-40, pH 8.0), homogenized with a handheld homogenizer (IKA T-18 digital homogenizer), and incubated on ice for 30 min. The homogenate was then cleared via centrifugation (16,000g, 20 min), and the supernatant was reserved. The total protein concentration was determined via BCA assay (Pierce) and adjusted to 6 mg/mL. Probe solutions at a concentration of 5 mM were prepared in sterile-filtered HBSS and were added to protein solutions to a final concentration of 50 μM. Samples were inverted 3× to mix and irradiated with a 365 nm UV lamp (8 W, 2 cm distance) for 30 min at room temperature. Samples were then buffer-swapped (10k MWCO, Pierce) into fresh phosphate-based NP-40 lysis buffer and freshly premixed Click-iT Kit (Invitrogen) reaction buffer (1× reaction buffer, 50 μM PC biotin azide (Click Chemistry Tools), 70:30 CuSO4/copper protectant, 1× reaction buffer additive) and incubated in the dark with constant shaking for 30 min at room temperature. […]

C#CCOc1ccc(C(=O)c2ccc(CN[C@H]3CCc4nc(N)sc4C3)cc2)cc1 [Compound 7, (S)-(4-(((2-Amino-4,5,6,7-tetrahydrobenzo[d]thiazol-6-yl)amino)methyl)phenyl)(4-(prop-2-yn-1-yloxy)phenyl)methanone]
number of proteins in common between probes 5 and 7: 58 | number of proteins unique to the probe: 57

C#CCOc1ccc(C(=O)c2ccc(CNCCc3cccc4c3CC(=O)N4)cc2)cc1 [Compound 5, 4-(2-((4-(4-(Prop-2-yn-1-yloxy)benzoyl)benzyl)amino)ethyl)indolin-2-one]
number of proteins in common between probes 5 and 7: 58 | number of proteins unique to the probe: 81
